Values of other authors as cited in patent US6159501A, “Modified release multiple-units dosage composition for release of opioid compounds” (Nycomed Danmark A/S, priority 1996, dated 2000).

Settings: cancer patients; cited from earlier work

For `CN1CC[C@]23c4c5ccc(O)c4O[C@H]2[C@@H](O)C=C[C@H]3[C@H]1C5` [morphine], the “steady-state plasma concentrations associated with satisfactory analgesia” value is given as 16 to 364 ng/mL.
